Numbering of substitutions follows the chain as printed. No constants are given. Whether binding was seen depends on the method and setting. For some of these results: A result given as binding can be weak or reduced; the word gives no strength. Each block holds one binder with its values, some of them ahead of it.
Columns and labels:
[1] = target: microtubuli associated tau; experiment: ELISA
[2] = target: pTau(S422A) (human); experiment: Western blot on recombinant Tau, all antibodies 1 ug/ml
[3] = target: KLH (keyhole limpet haemocyanine); experiment: condition: 1:5 dilution of the cell culture supernatants; ELISA, single point

binding [1]: no binding
binding [2]: no binding (tested: 1 ug/ml)
B1: VH32/VL21 (antibody, V domains shown)
VH: EVQVLESGGGLVQPGGSLRLSCAVSGFSLSSNAINWVRQAPGKGLEWVGYIAVSGNTYYASWAKGRFTISRDNSKNTVYLQMNSLRAEDTAVYYCGKSNIWGQGTLVTVSS
VL: AQVMTQSPSSLSASVGDRVTITCRSSQSVRTNKLAWFQQKPGQPPKRLIYSASTLDFGVPSRFSGSGSGTEFTLTISSLQPEDFATYYCLGYFDSSADIVAFGGGTKVEIK

binding [1]: no binding
binding [2]: no binding (tested: 1 ug/ml)
B2: VH32/VL22 (antibody, V domains shown)
VH: B1 VH
VL: B1 VL with K33R, F57Y

binding [1]: no binding
binding [2]: binds
binding [3]: no binding
B3: rabbit antibody Mab 086 (VH00/VL00) (antibody, V domains shown)
VH: QSVEESGGRLVTPGTPLTLTCTVSGFSLSSNAINWVRQAPGKGLEWIGYIAVSGNTYYASWAKGRFTISKASTTVDLKMTSPTAEDTGTYFCGKSNIWGPGTLVTVSL
VL: AQVLTQTTSPVSAAVGSTVTISCQSSQSVRTNKLAWFQQKPGQPPKRLIYSASTLDFGVPSRFSASGSGTQFTLTISDVQCDDAATYYCLGYFDCSIADCVAFGGGTEVVVK
